Results taken from the supplement of paper PMC10849652.
This is one part of the list.

Sequences of proteins named here, by UniProt entry; tags and fusion partners are left off. A change or cut given only in a name is not applied to a line headed by its entry.
UniProt Q9GZM5: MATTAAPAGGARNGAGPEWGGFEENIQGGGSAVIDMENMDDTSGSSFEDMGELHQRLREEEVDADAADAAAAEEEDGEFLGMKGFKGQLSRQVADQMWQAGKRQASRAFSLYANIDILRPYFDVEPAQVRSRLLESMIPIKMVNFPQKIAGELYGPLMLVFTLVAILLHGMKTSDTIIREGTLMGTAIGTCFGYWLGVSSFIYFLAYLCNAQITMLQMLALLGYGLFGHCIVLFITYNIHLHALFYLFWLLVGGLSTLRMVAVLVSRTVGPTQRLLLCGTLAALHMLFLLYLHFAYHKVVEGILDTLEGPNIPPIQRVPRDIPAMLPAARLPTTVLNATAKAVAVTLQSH
UniProt Q7Z2W4: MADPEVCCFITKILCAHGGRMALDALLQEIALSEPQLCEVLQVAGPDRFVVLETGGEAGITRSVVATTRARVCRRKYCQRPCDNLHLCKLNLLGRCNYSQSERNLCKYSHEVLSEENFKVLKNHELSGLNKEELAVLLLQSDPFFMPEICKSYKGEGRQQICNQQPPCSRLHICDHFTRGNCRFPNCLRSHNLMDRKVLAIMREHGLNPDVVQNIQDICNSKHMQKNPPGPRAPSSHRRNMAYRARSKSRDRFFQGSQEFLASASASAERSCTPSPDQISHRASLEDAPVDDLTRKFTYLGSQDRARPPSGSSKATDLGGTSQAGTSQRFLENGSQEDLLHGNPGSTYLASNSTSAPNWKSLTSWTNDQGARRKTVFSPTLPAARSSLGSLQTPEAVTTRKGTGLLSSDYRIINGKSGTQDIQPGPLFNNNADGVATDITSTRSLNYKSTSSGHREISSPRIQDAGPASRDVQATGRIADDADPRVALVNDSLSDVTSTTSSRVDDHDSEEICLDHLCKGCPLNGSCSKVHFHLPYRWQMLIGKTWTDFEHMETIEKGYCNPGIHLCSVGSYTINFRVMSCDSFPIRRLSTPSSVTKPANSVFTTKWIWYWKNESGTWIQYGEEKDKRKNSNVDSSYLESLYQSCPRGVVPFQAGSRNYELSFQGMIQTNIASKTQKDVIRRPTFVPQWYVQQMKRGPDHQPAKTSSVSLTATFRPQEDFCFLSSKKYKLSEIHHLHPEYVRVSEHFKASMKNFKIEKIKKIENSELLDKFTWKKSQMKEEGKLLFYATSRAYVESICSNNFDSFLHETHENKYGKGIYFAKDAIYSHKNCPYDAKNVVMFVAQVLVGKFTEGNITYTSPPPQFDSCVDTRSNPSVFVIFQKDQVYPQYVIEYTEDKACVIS
UniProt Q9C0E2: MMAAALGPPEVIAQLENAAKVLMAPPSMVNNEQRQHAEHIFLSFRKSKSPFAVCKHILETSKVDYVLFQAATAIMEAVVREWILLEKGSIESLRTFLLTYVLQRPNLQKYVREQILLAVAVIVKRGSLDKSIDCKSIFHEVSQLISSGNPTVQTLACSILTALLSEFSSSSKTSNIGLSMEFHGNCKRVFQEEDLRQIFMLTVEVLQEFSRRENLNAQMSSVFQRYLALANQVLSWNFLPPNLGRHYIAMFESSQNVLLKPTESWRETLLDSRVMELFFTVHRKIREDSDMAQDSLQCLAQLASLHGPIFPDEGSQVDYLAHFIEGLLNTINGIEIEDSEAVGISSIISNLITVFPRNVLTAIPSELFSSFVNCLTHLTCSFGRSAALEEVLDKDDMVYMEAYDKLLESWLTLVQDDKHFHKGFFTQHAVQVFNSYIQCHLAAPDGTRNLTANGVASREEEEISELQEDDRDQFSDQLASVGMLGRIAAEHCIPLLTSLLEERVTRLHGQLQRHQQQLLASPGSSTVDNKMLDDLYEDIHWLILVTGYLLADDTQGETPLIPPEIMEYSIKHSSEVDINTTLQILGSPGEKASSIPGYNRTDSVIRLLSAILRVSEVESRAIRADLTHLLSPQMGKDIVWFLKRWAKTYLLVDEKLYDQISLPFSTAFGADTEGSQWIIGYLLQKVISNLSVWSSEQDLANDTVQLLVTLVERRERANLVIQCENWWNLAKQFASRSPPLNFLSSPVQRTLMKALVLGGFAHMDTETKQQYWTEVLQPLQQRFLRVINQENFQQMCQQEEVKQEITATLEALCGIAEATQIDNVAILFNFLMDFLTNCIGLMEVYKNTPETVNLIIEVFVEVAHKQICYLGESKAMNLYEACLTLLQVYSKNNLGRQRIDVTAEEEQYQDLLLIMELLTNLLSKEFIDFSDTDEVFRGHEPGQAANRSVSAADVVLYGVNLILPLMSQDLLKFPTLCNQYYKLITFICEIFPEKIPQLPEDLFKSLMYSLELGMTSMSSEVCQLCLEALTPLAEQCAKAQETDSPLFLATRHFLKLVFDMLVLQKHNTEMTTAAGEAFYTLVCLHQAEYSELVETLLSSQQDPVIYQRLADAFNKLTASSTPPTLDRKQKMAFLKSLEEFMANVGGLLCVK
UniProt Q9NUD5: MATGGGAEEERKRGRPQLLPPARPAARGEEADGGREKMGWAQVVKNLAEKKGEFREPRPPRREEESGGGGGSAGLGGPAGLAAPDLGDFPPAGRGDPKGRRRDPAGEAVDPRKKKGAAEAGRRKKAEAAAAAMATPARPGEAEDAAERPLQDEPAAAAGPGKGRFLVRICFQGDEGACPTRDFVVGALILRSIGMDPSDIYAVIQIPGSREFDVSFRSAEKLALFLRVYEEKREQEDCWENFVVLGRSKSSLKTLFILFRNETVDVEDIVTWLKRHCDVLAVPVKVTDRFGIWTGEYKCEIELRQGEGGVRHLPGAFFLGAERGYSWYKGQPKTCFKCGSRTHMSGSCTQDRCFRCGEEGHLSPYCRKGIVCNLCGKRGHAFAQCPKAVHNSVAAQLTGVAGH
UniProt O43670: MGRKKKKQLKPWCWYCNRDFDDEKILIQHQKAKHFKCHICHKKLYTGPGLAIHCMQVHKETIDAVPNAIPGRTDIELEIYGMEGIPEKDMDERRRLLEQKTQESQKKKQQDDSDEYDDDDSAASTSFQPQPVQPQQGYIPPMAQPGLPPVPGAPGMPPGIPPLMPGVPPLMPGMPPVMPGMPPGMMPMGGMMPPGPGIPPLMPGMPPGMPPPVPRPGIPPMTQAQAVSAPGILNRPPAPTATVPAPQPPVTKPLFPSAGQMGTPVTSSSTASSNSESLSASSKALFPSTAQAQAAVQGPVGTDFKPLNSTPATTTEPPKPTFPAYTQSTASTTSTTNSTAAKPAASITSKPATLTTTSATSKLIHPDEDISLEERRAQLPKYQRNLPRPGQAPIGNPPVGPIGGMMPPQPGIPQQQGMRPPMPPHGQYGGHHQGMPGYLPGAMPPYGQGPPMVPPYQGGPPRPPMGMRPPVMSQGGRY
UniProt Q9HBF4: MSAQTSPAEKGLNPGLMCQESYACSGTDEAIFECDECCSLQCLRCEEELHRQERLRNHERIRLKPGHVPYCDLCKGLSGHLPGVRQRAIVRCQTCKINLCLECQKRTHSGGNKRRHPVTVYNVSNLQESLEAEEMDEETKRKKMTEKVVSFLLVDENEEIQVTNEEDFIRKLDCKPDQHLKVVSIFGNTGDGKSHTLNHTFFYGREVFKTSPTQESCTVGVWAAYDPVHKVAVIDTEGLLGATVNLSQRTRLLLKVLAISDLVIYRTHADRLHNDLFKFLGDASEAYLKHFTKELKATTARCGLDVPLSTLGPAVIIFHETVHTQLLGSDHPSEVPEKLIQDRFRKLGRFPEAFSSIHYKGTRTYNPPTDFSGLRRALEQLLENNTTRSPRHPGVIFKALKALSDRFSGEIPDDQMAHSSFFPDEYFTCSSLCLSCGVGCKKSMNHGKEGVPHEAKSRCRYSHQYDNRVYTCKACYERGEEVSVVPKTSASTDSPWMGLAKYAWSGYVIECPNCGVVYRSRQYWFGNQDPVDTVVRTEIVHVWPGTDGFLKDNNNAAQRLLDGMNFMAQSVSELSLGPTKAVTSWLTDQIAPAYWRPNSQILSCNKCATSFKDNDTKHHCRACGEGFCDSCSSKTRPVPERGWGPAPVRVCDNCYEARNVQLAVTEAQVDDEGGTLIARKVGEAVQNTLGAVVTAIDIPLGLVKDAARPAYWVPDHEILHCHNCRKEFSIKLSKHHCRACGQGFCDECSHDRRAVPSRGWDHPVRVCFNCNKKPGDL
UniProt O75844: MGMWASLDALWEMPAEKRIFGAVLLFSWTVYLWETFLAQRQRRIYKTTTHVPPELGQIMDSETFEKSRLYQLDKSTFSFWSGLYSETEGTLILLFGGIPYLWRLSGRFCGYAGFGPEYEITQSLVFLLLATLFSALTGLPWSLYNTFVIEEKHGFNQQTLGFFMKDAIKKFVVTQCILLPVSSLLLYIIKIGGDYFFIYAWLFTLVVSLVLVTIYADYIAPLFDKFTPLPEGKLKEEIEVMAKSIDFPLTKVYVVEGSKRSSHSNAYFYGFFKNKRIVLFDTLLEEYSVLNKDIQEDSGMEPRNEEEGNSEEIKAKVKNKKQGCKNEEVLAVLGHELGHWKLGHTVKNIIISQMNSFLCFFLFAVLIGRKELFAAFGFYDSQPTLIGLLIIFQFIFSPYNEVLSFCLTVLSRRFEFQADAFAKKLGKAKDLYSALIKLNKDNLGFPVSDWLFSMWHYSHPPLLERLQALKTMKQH
UniProt Q8NF64: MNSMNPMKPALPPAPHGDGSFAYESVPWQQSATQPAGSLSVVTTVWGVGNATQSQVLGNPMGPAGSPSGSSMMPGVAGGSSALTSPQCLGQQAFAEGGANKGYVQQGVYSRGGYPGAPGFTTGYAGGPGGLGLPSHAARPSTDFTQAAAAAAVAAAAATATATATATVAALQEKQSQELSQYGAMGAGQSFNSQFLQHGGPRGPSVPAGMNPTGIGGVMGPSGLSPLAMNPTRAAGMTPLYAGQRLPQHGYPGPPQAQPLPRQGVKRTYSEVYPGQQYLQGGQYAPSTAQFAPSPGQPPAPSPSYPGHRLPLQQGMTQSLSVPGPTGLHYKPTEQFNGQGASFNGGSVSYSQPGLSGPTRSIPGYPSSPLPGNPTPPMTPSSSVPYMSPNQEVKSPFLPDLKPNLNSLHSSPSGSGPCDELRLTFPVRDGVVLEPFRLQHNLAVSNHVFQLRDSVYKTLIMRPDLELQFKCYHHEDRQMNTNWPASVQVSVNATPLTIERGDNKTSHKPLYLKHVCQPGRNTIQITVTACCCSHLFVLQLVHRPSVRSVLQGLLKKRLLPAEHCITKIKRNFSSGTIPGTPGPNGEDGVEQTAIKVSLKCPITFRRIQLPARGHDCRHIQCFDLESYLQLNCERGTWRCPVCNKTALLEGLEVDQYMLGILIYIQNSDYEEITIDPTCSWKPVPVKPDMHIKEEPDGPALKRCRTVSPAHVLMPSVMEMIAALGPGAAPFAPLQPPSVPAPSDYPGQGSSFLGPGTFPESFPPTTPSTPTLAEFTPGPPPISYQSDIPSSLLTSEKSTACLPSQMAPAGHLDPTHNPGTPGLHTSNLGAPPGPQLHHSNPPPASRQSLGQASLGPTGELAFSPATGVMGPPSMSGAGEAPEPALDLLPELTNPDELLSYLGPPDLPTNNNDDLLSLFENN
UniProt Q9Y2Z4: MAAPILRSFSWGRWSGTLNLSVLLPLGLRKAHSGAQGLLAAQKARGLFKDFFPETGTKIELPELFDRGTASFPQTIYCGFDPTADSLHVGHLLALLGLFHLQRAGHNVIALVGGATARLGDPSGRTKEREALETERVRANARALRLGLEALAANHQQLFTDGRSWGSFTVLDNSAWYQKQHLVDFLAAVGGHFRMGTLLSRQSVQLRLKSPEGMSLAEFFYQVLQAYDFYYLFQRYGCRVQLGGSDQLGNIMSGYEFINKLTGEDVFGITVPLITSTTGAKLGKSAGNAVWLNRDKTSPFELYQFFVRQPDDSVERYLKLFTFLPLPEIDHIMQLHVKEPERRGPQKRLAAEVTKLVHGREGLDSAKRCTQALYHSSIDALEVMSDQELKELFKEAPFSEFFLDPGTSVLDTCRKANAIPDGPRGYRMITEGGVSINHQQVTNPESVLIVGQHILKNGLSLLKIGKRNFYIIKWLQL
UniProt Q8IWT0: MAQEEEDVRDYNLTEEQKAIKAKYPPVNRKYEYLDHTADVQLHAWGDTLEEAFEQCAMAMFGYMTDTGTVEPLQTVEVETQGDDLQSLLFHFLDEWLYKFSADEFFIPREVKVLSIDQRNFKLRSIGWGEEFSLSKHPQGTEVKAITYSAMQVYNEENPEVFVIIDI
UniProt Q5T4F4: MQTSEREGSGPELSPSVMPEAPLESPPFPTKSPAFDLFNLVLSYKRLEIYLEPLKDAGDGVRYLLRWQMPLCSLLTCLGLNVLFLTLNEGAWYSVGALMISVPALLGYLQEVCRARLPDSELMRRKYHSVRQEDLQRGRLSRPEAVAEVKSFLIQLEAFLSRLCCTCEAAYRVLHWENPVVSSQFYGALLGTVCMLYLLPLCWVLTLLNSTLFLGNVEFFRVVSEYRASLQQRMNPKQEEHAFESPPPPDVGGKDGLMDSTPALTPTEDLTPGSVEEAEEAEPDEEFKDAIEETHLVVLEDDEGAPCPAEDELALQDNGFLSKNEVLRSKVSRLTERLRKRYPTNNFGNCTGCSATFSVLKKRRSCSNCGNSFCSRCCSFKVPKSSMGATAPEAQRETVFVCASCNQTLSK

Assays:
Assay in all cases: log2 fold change, soluble protein after heating vs DMSO (PISA); higher = thermal stabilisation; K562 cells, 10 uM, 30 min; active = over 0.2 and 3.5 SD of the protein, either way, in both replicates (recomputed)
[1] = compound: CC[C@@H]1C(=O)N(C)c2cnc(Nc3ccc(C(=O)NC4CCN(C)CC4)cc3OC)nc2N1C1CCCC1
In short: (§1)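 K562 cells at 2×10^6 cells/mL were given 10 μM compound for 30 min. Aliquots then went through 3 min of heating across 48°C-58°C, were pooled, and were extracted in PBS with 0.5% NP-40 at 4°C, and the supernatant after 21,000xg for 90 min was quantified by TMTpro 16plex LC-MS/MS with channel sums equalised. Thermal stability relative to control samples, from duplicates, is given as log2 fold change.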

[2] = compound: CC[C@@H]1C(=O)N(C)c2cnc(Nc3ccc(C(=O)N[C@H]4CC[C@H](N5CCN(CC6CC6)CC5)CC4)cc3OC)nc2N1C(C)C [volasertib]
In short: as §1

[3] = compound: CC[C@H](C)N1C=C(C2=C(C=C(C=C21)C3=CN=C(C=C3)N4CCNCC4)C(=O)NCC5=C(C=C(NC5=O)C)C)C
In short: as §1

[4] = compound: CC[C@H](C)[C@@H](C(=O)N[C@@H]([C@@H](C)O)C(=O)N[C@@H](CC(C)C)C(=O)[C@]1(CO1)C)NC(=O)[C@H]([C@@H](C)CC)N(C)C(=O)C [epoxomicin]
In short: as §1

[5] = compound: CCn1c(C(=O)N(C2CC2)C2CC2)cc2c3c(ncn3C)c(Nc3cc(C)n(C)n3)nc21
In short: as §1

[6] = compound: CCn1cc(-c2ccnc3[nH]c(-c4cccc(CN(C)C)c4)cc23)c(-c2ccc(NC(=O)N(C)C)cc2)n1
In short: as §1

[7] = compound: CN(C)CC(=O)Nc1ccc2[nH]c(=O)c3ccccc3c2c1
In short: as §1

[8] = compound: CN(CCOC1=CC=C(C=C1)C[C@H]2C(=O)NC(=O)S2)C3=CC=CC=N3 (racemic) [rosiglitazone]
In short: as §1

[9] = compound: CN1C2=C(C3=C1C(=O)N(N=C3)CC4=CC(=CC=C4)N)SC(=C2)S(=O)C
In short: as §1

[10] = compound: CN1CCC(CNc2ccc3ncc(-c4cccc(OC(F)(F)F)c4)n3n2)CC1
In short: as §1

[11] = compound: CN1CCN(CCOc2cc(OC3CCOCC3)c3c(Nc4c(Cl)ccc5c4OCO5)ncnc3c2)CC1 [saracatinib]
In short: as §1

[12] = compound: CN1CCN(c2nc(C3=C(c4c[nH]c5ccccc45)C(=O)NC3=O)c3ccccc3n2)CC1 [sotrastaurin]
In short: as §1

[13] = compound: CN1CC[C@H](c2c(O)cc(O)c3c(=O)cc(-c4ccccc4Cl)oc23)[C@H](O)C1 [alvocidib]
In short: as §1

[14] = compound: CN1CCc2c(c3ccccc3n2Cc2ccc(C(=O)NO)cc2)C1 [Tubastatin A]
In short: as §1

[15] = compound: CNC(=O)C1=CC=CC=C1NC2=NC(=NC=C2Cl)NC3=C(C=C(C=C3)N4CCOCC4)OC
In short: as §1

[16] = compound: CNC(=O)c1ccc(Nc2ncc(C(F)(F)F)c(NCc3nccnc3N(C)S(C)(=O)=O)n2)cc1 [defactinib]
In short: as §1

[17] = compound: CNCc1ccc(-c2[nH]c3cc(F)cc4c3c2CCNC4=O)cc1 [rucaparib]
In short: as §1

[18] = compound: CNc1nc(-c2ccc3c(N)n[nH]c3c2)cc(N2C[C@@H](C(=O)NC3CCCCC3)CC[C@H]2C)n1
In short: as §1

[19] = compound: COC(=O)N[C@@H](C)CNc1nccc(-c2cn(C(C)C)nc2-c2cc(Cl)cc(NS(C)(=O)=O)c2F)n1 [encorafenib]
In short: as §1

[20] = compound: COC(=O)[C@H](CCSC)NC(=O)C1=C(C=C(C=C1)NC[C@H](CS)N)C2=CC=CC=C2
In short: as §1

Measured: log2 fold change

YIPF3 (UniProt Q9GZM5)
inactive: [1] -0.026 | [2] -0.113 | [3] -0.023 | [4] 0.005 | [5] -0.023 | [6] 0.01 | [7] 0.057 | [8] 0.01 | [9] -0.055 | [10] 0.002 | [11] 0.07 | [12] 0.007 | [13] 0.04 | [14] -0.024 | [15] -0.007 | [16] 0.032 | [17] -0.056 | [18] -0.038 | [19] 0.033 | [20] 0.039

ZC3HAV1 (UniProt Q7Z2W4)
inactive: [1] 0.15 | [2] 0.19 | [3] 0.01 | [4] -0.319 | [5] -0.003 | [6] 0.151 | [7] 0.019 | [8] 0.051 | [9] 0.529 | [10] 0.229 | [11] -0.127 | [12] -0.077 | [13] 0.245 | [14] 0.024 | [15] -0.05 | [16] 0.066 | [17] 0.581 | [18] 0.122 | [19] 0.231 | [20] 0.011

ZC3H14 (UniProt Q6PJT7)
inactive: [1] 0.012 | [2] -0.167 | [3] 0.012 | [4] -0.051 | [5] -0.084 | [6] 0.065 | [7] -0.008 | [8] -0.035 | [9] 0.011 | [10] 0.079 | [11] 0.078 | [12] -0.077 | [13] 0.045 | [14] -0.064 | [15] -0.063 | [16] 0.117 | [17] 0.066 | [18] -0.174 | [19] -0.002 | [20] -0.019

XPO4 (UniProt Q9C0E2)
inactive: [1] -0.082 | [2] -0.11 | [3] -0.013 | [4] 0.04 | [5] 0.006 | [6] -0.041 | [7] -0.027 | [8] 0.036 | [9] -0.059 | [10] -0.08 | [11] 0.063 | [12] -0.004 | [13] -0.009 | [14] -0.036 | [15] 0.012 | [16] -0.046 | [17] -0.02 | [18] -0.043 | [19] 0.007 | [20] 0.006

ZCCHC3 (UniProt Q9NUD5)
inactive: [1] 0.23 | [2] 0.252 | [3] 0.093 | [4] -0.202 | [5] 0.036 | [6] 0.118 | [7] -0.12 | [8] -0.077 | [9] 0.183 | [10] 0.192 | [11] -0.06 | [12] -0.017 | [13] 0.242 | [14] 0.045 | [15] -0.008 | [16] 0.135 | [17] 0.328 | [18] 0.002 | [19] 0.012 | [20] -0.041

YDJC (UniProt A8MPS7)
inactive: [1] 0.033 | [2] 0.168 | [3] -0.014 | [4] 0.098 | [5] -0.176 | [6] -0.088 | [7] 0 | [8] 0.053 | [9] -0.063 | [10] -0.18 | [11] -0.009 | [12] 0.001 | [13] -0.126 | [14] 0.02 | [15] 0.042 | [16] -0.025 | [17] -0.044 | [18] 0.011 | [19] 0.013 | [20] 0.025

ZNF207 isoform 4 (UniProt O43670)
inactive: [1] -0.001 | [2] 0.032 | [3] -0.003 | [4] 0.016 | [5] 0.012 | [6] -0.076 | [7] 0.025 | [8] 0 | [9] 0.002 | [10] -0.096 | [11] -0.067 | [12] 0.031 | [13] -0.02 | [14] -0.001 | [15] -0.002 | [16] 0.015 | [17] 0.052 | [18] -0.031 | [19] 0.031 | [20] 0.038

YJU2 (UniProt Q9BW85)
inactive: [1] -0.067 | [2] -0.081 | [3] -0.011 | [4] 0.067 | [5] 0.03 | [6] -0.028 | [7] -0.045 | [8] 0.011 | [9] -0.044 | [10] 0.043 | [11] 0.026 | [12] -0.029 | [13] -0.052 | [14] 0.005 | [15] 0.018 | [16] -0.002 | [17] 0.034 | [18] -0.1 | [19] -0.034 | [20] 0.006

XRN2 (UniProt Q9H0D6)
inactive: [1] 0.063 | [2] 0.132 | [3] -0.022 | [4] -0.037 | [5] -0.032 | [6] 0.071 | [7] -0.028 | [8] -0.017 | [9] 0.052 | [10] 0.047 | [11] 0.011 | [12] 0.052 | [13] 0.085 | [14] 0.015 | [15] 0.015 | [16] 0.045 | [17] -0.046 | [18] -0.035 | [19] 0 | [20] 0.003

XRCC4 (UniProt Q13426)
inactive: [1] -0.004 | [2] 0.028 | [3] -0.034 | [4] 0.007 | [5] 0.028 | [6] -0.046 | [7] -0.012 | [8] 0.004 | [9] -0.055 | [10] 0.028 | [11] 0.042 | [12] 0.048 | [13] -0.025 | [14] -0.022 | [15] -0.039 | [16] -0.04 | [17] -0.071 | [18] -0.043 | [19] 0.017 | [20] 0.021

ZFYVE1 (UniProt Q9HBF4)
inactive: [1] 0.108 | [2] -0.072 | [3] 0.021 | [4] 0.13 | [5] -0.082 | [6] -0.039 | [7] -0.071 | [8] 0.055 | [9] 0.04 | [10] -0.104 | [11] 0.037 | [12] 0.134 | [13] -0.036 | [14] 0.132 | [15] 0.063 | [16] -0.069 | [17] -0.118 | [18] -0.06 | [19] -0.039 | [20] 0.059

ZMPSTE24 (UniProt O75844)
inactive: [1] 0.131 | [2] 0.138 | [3] -0.05 | [4] 0.071 | [5] 0.008 | [6] -0.012 | [7] 0.005 | [8] 0.005 | [9] -0.058 | [10] 0.083 | [11] 0.005 | [12] 0.025 | [13] 0.006 | [14] -0.022 | [15] 0.009 | [16] -0.02 | [17] -0.055 | [18] 0.006 | [19] 0.002 | [20] -0.007

ZMIZ2 (UniProt Q8NF64)
inactive: [1] 0.029 | [2] -0.001 | [3] -0.295 | [4] 0.047 | [5] -0.03 | [6] 0.006 | [7] 0.018 | [8] -0.013 | [9] -0.03 | [10] -0.158 | [11] 0.127 | [12] 0.082 | [13] -0.012 | [14] -0.14 | [15] -0.041 | [16] 0.013 | [17] -0.077 | [18] -0.073 | [19] -0.011 | [20] 0.033

YARS2 (UniProt Q9Y2Z4)
inactive: [1] -0.187 | [2] -0.434 | [3] 0.124 | [4] 0.097 | [5] -0.16 | [6] 0.083 | [7] 0.118 | [8] 0.024 | [9] 0.014 | [10] -0.02 | [11] -0.098 | [12] -0.132 | [13] -0.096 | [14] -0.114 | [15] 0.005 | [16] -0.24 | [17] 0.166 | [18] 0.09 | [19] -0.005 | [20] 0.03

Taken from above (two entries):
XRCC4 (UniProt Q13426)
inactive: [1] -0.004 | [2] 0.028 | [3] -0.034 | [4] 0.007 | [5] 0.028 | [6] -0.046 | [7] -0.012 | [8] 0.004 | [9] -0.055 | [10] 0.028 | [11] 0.042 | [12] 0.048 | [13] -0.025 | [14] -0.022 | [15] -0.039 | [16] -0.04 | [17] -0.071 | [18] -0.043 | [19] 0.017 | [20] 0.021

ZFYVE1 (UniProt Q9HBF4)
inactive: [1] 0.108 | [2] -0.072 | [3] 0.021 | [4] 0.13 | [5] -0.082 | [6] -0.039 | [7] -0.071 | [8] 0.055 | [9] 0.04 | [10] -0.104 | [11] 0.037 | [12] 0.134 | [13] -0.036 | [14] 0.132 | [15] 0.063 | [16] -0.069 | [17] -0.118 | [18] -0.06 | [19] -0.039 | [20] 0.059

Next records follow.

ZBTB8OS (UniProt Q8IWT0)
inactive: [1] 0.033 | [2] 0.08 | [3] -0.008 | [4] 0.082 | [5] -0.045 | [6] -0.032 | [7] -0.009 | [8] 0.027 | [9] -0.001 | [10] 0.003 | [11] -0.007 | [12] 0.029 | [13] 0.124 | [14] -0.042 | [15] 0.038 | [16] -0.053 | [17] -0.133 | [18] -0.061 | [19] 0.046 | [20] 0.034

ZFYVE27 isoform 2 (UniProt Q5T4F4)
inactive: [1] -0.018 | [2] -0.084 | [3] -0.016 | [4] 0.028 | [5] -0.014 | [6] -0.034 | [7] -0.077 | [8] 0.012 | [9] -0.081 | [10] 0.043 | [11] 0.022 | [12] 0 | [13] -0.021 | [14] 0.029 | [15] -0.006 | [16] 0 | [17] -0.006 | [18] -0.077 | [19] -0.026 | [20] 0.012
